Experimental data taken from article PMC2211464.

Amino acid sequences for entries named in this document (tags omitted). A change or cut given only in a name is not applied to a line headed by its entry.
UniProt P63330: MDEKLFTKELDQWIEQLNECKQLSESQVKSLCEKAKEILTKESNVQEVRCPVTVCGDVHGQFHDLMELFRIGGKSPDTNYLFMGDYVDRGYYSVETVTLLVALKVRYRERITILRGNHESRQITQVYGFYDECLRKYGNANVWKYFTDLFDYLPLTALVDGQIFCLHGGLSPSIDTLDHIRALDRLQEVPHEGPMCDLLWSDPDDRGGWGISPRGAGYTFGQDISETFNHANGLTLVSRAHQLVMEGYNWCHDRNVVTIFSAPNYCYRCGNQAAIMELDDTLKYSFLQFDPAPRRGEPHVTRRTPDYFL

Experiments:
[1] = target: T1, Dishevelled-2 (mouse (endogenous in F9)) (UniProt Q60838); assay: co-IP; lysates of F9 cells (Figure 9A: cytosolic fraction, 1 mg, cells stimulated with Wnt3a for 0-2 hr) precipitated with anti-Dvl2 antibody; blot with anti-PP2A C-subunit; mouse IgG as control
T1 sequence: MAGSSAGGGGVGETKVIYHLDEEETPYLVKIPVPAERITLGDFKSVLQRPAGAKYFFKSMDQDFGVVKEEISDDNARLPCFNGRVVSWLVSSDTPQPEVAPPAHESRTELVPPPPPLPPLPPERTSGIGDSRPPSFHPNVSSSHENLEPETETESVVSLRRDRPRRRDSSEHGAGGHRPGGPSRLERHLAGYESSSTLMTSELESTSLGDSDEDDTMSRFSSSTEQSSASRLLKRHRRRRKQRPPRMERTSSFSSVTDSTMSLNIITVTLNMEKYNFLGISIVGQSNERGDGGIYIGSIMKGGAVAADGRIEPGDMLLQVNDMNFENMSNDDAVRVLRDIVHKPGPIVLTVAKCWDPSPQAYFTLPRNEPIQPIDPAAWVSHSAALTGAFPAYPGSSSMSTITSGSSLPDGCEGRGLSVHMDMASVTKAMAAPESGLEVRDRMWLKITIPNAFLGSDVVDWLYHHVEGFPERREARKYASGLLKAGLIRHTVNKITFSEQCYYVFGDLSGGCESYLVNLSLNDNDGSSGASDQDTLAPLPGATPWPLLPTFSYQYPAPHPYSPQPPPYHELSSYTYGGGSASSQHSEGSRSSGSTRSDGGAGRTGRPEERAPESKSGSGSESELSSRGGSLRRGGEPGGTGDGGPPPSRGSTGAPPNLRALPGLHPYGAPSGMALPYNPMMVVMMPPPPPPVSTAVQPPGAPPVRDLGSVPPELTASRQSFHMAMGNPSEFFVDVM

[2] = target: T2, GST-DEP (amino acids 433-507 of Dvl2) (mouse) (UniProt Q60838); assay: pull-down; purified PP2A (AC dimer, 0.2 μg) incubated 1 hr at 4°C with GST fusions of Dvl2 domains or GST on gel; washed with PBS with 0.5% NP-40; blot with anti-PP2A C-subunit and anti-GST; both purified
T2 sequence: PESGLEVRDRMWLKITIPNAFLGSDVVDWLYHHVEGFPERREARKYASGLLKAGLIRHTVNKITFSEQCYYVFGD

[3] = target: T3, GST-DIX (amino acids 11-93 of Dvl2) (mouse) (UniProt Q60838); assay: as above
T3 sequence: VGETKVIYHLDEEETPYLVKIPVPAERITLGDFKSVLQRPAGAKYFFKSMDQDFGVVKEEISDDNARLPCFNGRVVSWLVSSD

[4] = target: T4, GST-PDZ (amino acids 267-339 of Dvl2) (mouse) (UniProt Q60838); assay: as above
T4 sequence: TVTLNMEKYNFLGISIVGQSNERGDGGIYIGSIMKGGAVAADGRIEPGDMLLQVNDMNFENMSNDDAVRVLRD

[5] = target: T5, GST-SH3 (amino acids 370-376 of Dvl2) (mouse) (UniProt Q60838); assay: as above
T5 sequence: PIQPIDP

Substance | binding [1] | binding [2] | binding [3] | binding [4] | binding [5]
Phosphoprotein phosphatase-2A (detected by its C-subunit) (from UniProt P63330) (enzyme) | binds | – | – | – | –
Purified PP2A (AC dimer) (mouse) (complex) | – | binds | no binding (tested: 0.2 μg PP2A) | no binding (tested: 0.2 μg PP2A) | no binding (tested: 0.2 μg PP2A)

Results are given in words; binding and its absence hold for the method and conditions named. For some assays here: A result given as binding can be weak or reduced; the word gives no strength. For some assays here: Where a sequence is shown, tags or fusion partners need not be part of it. For some assays here: In cells and extracts the contact can be indirect.
